# Reference: US20260327211A1, “MODULATORS OF A POTASSIUM CHANNEL AND OF TRPV1 CHANNEL AND USES THEREOF” (Bsense Bio Therapeutics Ltd., priority 2023, published 2026)
# At least one read-out could not be matched to a standard name with certainty.
# Experiment: Kinetic solubility
# Assay type: physicochemical
# Details: Tables 4 and 11
# Method: Solubility measurements were performed prior to each in vitro assay to ensure accurate dose response and reproducibility. Briefly, each compound was dissolved to 60 mM in DMSO and calibration curve was performed from 1.5-200 μM using absorbance spectra analysis and determination of λmax. Calibration curve served as the readout for all following assays. The 60 mM stock solution was used to make a 120 μM target concentration of 0.2% DMSO in the appropriate buffer of the in vitro related assay (i.e. HHBS buffer). Solubilized compounds were vortex for 10 minutes followed by centrifugation for 15 minutes in 5000 RPM and the supernatant was recovered for absorbance spectra analysis between 200-400 nm.
compound,measurement,value
O=C(Cc1cncc(-n2cc(Cl)c3cc(Cl)cc(Cl)c32)c1)N[C@@H]1COC[C@H]1O [Compound 661],Kinetic Sol.,37 mM
